We go through two sequences from publication PMC11775523.

The chains behind the UniProt entries cited, without tags or fusion partners. Residues count along the entry.
UniProt Q13308, 31-1070: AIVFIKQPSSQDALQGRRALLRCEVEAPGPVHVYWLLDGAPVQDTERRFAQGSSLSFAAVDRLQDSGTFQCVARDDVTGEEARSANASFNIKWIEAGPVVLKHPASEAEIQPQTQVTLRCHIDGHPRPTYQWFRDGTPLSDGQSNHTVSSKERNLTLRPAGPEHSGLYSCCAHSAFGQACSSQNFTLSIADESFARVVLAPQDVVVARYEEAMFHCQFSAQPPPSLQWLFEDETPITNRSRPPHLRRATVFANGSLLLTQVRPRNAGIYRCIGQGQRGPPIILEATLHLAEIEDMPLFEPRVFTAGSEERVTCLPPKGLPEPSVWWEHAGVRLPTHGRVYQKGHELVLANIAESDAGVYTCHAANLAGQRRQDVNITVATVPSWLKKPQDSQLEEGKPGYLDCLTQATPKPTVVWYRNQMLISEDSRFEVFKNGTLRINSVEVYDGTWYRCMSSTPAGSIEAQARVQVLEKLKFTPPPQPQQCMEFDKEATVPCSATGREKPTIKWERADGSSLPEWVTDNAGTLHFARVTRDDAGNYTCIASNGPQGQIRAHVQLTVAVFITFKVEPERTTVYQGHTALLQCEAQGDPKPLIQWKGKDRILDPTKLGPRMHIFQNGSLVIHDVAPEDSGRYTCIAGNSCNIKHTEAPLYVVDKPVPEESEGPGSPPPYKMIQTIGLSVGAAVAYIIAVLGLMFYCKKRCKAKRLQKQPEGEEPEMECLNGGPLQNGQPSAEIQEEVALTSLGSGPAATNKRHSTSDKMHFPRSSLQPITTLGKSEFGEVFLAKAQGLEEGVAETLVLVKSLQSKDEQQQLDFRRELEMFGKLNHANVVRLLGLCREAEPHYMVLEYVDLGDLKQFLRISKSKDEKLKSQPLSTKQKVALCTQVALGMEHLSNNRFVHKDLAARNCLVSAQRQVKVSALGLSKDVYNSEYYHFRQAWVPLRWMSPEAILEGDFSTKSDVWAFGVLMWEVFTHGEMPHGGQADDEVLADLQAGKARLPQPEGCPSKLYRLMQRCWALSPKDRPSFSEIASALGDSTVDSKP

For at least one entry, the source does not settle the construct or the ends of the probe. Where cells or extracts were used, other partners may take part. Negatives hold for the conditions tested. At least one verdict was read from the data and is not stated in words by the source.

This data set concerns the target PTK7 on HCT116 cells (UniProt Q13308). Description: confocal microscopy and flow cytometry on cells. Conditions: Cells: Dulbecco's PBS, 5 mM MgCl2, 4.5 g/L glucose, 0.1 mg/mL yeast tRNA, 1 mg/mL BSA, 4 C or on ice, 30 min, protein on the cell surface. Background: Flow cytometry measures light scatter and fluorescence of single cells or particles in a stream.

As for “ATCTAACTGCTGCGCCGCCGGGAAAATACTGTACGGTTAGA [Sgc8 (S01)]”, the binding result (HCT116 cells, 5 mM MgCl2, Kd only in figure; Results text: 10 uM into 1 uM), folded or branched DNA) is given as “binds”.

Take “AACCGATAAAATAAGAGCCGAAGCGTAGATTACCAGTGTAT [LSgc8 (control library chain)]”: the binding result (HCT116 cells, control chains 'hardly bind'; Results text: 10 uM into 1 uM), label: 5'-Cy5, single-stranded DNA) was “no binding”.
